No constants are given. Whether binding was seen depends on the method and setting. Binding seen in cells or lysates may run through a third protein. Some entries that bind do so weakly or less than the wild type. Where a sequence is shown, tags or fusion partners need not be part of it.

Protein sequences, listed by entry. Tags and fused reporters are not part of them. Lines headed by an entry give the natural chain unless they say otherwise; changes in a name come on top. Chains listed by the source or under a name are the forms on record and can include a tag or linker. Residues count along the entry.
UniProt Q5VXU9: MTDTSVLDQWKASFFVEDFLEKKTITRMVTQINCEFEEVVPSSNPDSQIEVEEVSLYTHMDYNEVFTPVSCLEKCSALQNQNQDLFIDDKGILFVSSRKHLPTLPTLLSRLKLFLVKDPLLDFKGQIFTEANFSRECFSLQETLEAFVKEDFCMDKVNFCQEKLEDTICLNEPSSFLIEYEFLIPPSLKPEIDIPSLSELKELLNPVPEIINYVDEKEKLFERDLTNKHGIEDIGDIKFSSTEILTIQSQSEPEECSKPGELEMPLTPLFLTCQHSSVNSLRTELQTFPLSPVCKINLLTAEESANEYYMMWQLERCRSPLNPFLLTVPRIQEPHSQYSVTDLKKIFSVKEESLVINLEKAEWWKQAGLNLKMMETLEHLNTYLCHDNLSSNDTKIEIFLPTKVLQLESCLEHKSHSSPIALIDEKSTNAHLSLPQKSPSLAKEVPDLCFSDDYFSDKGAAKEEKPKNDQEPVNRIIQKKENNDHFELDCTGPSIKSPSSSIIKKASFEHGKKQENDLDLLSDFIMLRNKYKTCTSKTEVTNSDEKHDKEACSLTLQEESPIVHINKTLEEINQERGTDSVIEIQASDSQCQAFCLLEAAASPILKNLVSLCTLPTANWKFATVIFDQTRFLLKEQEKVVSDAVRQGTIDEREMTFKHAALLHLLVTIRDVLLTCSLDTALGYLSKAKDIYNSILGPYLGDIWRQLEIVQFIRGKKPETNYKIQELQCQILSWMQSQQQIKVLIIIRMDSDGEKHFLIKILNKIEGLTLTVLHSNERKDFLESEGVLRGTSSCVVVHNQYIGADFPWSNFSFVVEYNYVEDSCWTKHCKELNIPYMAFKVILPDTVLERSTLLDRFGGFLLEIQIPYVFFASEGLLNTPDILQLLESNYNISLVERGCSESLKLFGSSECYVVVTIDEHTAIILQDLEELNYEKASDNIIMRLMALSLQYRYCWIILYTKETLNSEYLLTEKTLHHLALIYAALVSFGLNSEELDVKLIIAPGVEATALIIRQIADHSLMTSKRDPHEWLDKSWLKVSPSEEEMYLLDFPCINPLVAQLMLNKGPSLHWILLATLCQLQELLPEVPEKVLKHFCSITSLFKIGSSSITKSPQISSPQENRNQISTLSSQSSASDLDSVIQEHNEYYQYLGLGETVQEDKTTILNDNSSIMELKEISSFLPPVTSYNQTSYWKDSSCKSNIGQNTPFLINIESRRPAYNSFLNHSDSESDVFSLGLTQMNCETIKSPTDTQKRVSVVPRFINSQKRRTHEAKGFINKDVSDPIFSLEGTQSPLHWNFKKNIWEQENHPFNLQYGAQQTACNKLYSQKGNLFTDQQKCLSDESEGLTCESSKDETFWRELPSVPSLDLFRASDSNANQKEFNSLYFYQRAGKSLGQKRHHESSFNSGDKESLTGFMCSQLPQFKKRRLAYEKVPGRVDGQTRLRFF
human SHOC1 ΔF1 (aa1-288del): residues 289-1444 of Q5VXU9
human SHOC1 C-terminal 577–1444: residues 577-1444 of Q5VXU9
human SHOC1 ΔF2 (aa289-576del) (Q5VXU9, form named): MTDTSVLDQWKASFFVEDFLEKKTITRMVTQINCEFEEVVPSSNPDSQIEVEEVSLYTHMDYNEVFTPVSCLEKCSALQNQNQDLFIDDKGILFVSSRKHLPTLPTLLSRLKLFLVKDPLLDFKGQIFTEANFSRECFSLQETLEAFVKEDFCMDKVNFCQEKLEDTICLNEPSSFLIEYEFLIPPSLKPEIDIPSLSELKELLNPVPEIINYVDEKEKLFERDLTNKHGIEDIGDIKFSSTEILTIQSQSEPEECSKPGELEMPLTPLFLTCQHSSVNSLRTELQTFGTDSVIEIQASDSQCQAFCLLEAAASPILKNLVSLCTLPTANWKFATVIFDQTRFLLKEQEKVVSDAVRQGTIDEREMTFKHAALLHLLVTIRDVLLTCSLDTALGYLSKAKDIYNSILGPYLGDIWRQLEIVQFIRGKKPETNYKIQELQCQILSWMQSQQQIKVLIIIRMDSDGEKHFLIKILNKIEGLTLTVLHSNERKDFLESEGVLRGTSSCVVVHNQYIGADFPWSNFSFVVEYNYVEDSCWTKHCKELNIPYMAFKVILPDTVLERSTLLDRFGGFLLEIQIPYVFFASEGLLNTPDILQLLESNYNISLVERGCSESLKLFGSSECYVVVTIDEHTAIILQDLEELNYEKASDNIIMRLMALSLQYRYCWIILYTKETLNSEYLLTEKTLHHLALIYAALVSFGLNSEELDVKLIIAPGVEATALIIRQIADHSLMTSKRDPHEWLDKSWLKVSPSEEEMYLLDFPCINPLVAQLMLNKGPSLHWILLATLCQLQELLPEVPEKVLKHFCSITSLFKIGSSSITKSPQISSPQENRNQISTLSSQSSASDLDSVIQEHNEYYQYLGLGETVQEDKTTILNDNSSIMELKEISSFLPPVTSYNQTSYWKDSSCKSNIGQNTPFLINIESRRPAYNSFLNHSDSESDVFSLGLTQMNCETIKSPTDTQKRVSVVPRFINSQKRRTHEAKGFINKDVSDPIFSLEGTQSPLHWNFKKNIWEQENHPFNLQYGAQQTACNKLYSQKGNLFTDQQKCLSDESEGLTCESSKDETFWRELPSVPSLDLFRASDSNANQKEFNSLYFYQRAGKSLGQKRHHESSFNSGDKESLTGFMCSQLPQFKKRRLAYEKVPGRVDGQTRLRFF

What all share (test): co-IP; tagged proteins co-expressed in pairs in HEK293T; immunoprecipitated from cell lysates by tag-specific antibodies, Western blot; IP lysis buffer 20 mM HEPES, 150 mM NaCl, 0.5% NP-40, 1 mM DTT, pH 7.3; 4°C (Fig. 1A, B; Supplementary Fig. S2C, D)
A general note: In western blotting, separated proteins are transferred to a membrane and probed.

In test [1] the target is human FLAG-tagged SHOC1 (human) (UniProt Q5VXU9).
Test [2] has as its target human SHOC1 C-terminal 577–1444 (human) (UniProt Q5VXU9).
Test [3] has as its target human SHOC1 ΔF1 (aa1-288del) (human) (UniProt Q5VXU9).
Test [4] deals with human SHOC1 ΔF2 (aa289-576del) (human) (UniProt Q5VXU9).

B1: human MYC-tagged TEX11 (protein, UniProt Q8IYF3 1-940)
chain: MISAHCNLRLLCSSDSSASASQVAGTTEVVENLVTNDNSPNIPEAIDRLFSDIANINRESMAEITDIQIEEMAVNLWNWALTIGGGWLVNEEQKIRLHYVACKLLSMCEASFASEQSIQRLIMMNMRIGKEWLDAGNFLIADECFQAAVASLEQLYVKLIQRSSPEADLTMEKITVESDHFRVLSYQAESAVAQGDFQRASMCVLQCKDMLMRLPQMTSSLHHLCYNFGVETQKNNKYEESSFWLSQSYDIGKMDKKSTGPEMLAKVLRLLATNYLDWDDTKYYDKALNAVNLANKEHLSSPGLFLKMKILLKGETSNEELLEAVMEILHLDMPLDFCLNIAKLLMDHERESVGFHFLTIIHERFKSSENIGKVLILHTDMLLQRKEELLAKEKIEEIFLAHQTGRQLTAESMNWLHNILWRQAASSFEVQNYTDALQWYYYSLRFYSTDEMDLDFTKLQRNMACCYLNLQQLDKAKEAVAEAERHDPRNVFTQFYIFKIAVIEGNSERALQAIITLENILTDEESEDNDLVAERGSPTMLLSLAAQFALENGQQIVAEKALEYLAQHSEDQEQVLTAVKCLLRFLLPKIAEMPESEDKKKEMDRLLTCLNRAFVKLSQPFGEEALSLESRANEAQWFRKTAWNLAVQCDKDPVMMREFFILSYKMSQFCPSDQVILIARKTCLLMAVAVDLEQGRKASTAFEQTMFLSRALEEIQTCNDIHNFLKQTGTFSNDSCEKLLLLYEFEVRAKLNDPLLESFLESVWELPHLETKTFETIAIIAMEKPAHYPLIALKALKKALLLYKKEEPIDISQYSKCMHNLVNLSVPDGASNVELCPLEEVWGYFEDALSHISRTKDYPEMEILWLMVKSWNTGVLMFSRSKYASAEKWCGLALRFLNHLTSFKESYETQMNMLYSQLVEALSNNKGPVFHEHGYWSKSD
As to B1, the binding result in test [1] is reported as “binds”; in test [2], “no binding”; in test [3] it was “no binding”; in test [4], “no binding”.

These data come from publication PMC13245411.
